Experimental data published in patent US9888688B2, “Tetrazolinone compounds and applications thereof” (Sumitomo Chemical Company, Limited, priority 2013, dated 2018).
Some results were stated once for a whole list of compounds, not compound by compound.

Legend:
Assay type in all cases: in vivo
[1] = system: kidney bean stem rot fungus (Sclerotinia sclerotiorum); assay: Kidney bean stem rot control test, foliar spray on kidney bean (Test Examples 5, 22, 23); settings: kidney bean NAGAUZURA NATANE, four days after inoculation
[2] = system: wheat leaf blotch fungus (Septoria tritici); assay: Wheat leaf blotch control test, spray before inoculation (Test Examples 6, 9, 10, Comparative Test Example); settings: wheat APOGEE, inoculated after 4 days
[3] = system: wheat leaf blotch fungus (Septoria tritici); assay: Wheat leaf blotch control test, spray after inoculation (Test Example 8); settings: 200 ppm foliar spray 3 days after inoculation, wheat APOGEE
[4] = system: barley scald fungus (Rhynchosporium secalis); assay: Barley scald control test, foliar spray on barley (Test Examples 20, 21); settings: 200 ppm foliar spray, barley NISHINOHOSHI, inoculated after 2 days
[5] = system: barley net blotch fungus (Pyrenophora teres); assay: Barley net blotch control test, foliar spray on barley (Test Examples 4, 16, 17, 18); settings: barley NISHINOHOSHI, inoculated after 2 days
[6] = system: cucumber corynespora leaf spot fungus (Corynespora cassicola); assay: Cucumber corynespora leaf spot control test (Test Examples 26, 27); settings: cucumber SAGAMI HANJIRO, inoculated after one day, 7 days
[7] = system: cucumber anthracnose fungus (Colletotrichum lagenarium); assay: Cucumber anthracnose control test (Test Examples 28, 29); settings: cucumber SAGAMI HANJIRO, inoculated after one day

Measured: area of lesion spots relative to that on an untreated plant

CCOc1cccc(-n2nnn(C)c2=O)c1COc1ccc(-c2cccc(C)n2)cc1C [Present Compound 53]
≤ 30%: [1]; 200 ppm foliar spray | [1]; 500 ppm foliar spray | [2]; 200 ppm foliar spray | [2]; 500 ppm foliar spray | [3] | [4]

Cc1ccc(-c2cc(C)c(OCc3c(C)cccc3-n3nnn(C)c3=O)cc2F)nn1 [Present Compound 233]
≤ 30%: [5]; 200 ppm foliar spray | [5]; 500 ppm foliar spray | [3] | [4]

COc1cccc(-n2nnn(C)c2=O)c1COc1ccc(-c2ncccc2C)cc1C [Present Compound 11]
≤ 30%: [5]; 200 ppm foliar spray | [5]; 500 ppm foliar spray | [2]; 200 ppm foliar spray | [2]; 500 ppm foliar spray | [3] | [4]

Cc1cc(-c2cccnc2)ccc1OCc1c(Cl)cccc1-n1nnn(C)c1=O [Present Compound 63]
≤ 30%: [5]; 200 ppm foliar spray | [5]; 500 ppm foliar spray | [1]; 200 ppm foliar spray | [1]; 500 ppm foliar spray | [2]; 200 ppm foliar spray | [2]; 500 ppm foliar spray | [4] | [6]; 200 ppm foliar spray | [7]; 200 ppm foliar spray

Cc1ccc(-c2ccc(OCc3c(C)cccc3-n3nnn(C)c3=O)c(C)c2)nc1 [Present Compound 31]
≤ 30%: [5]; 200 ppm foliar spray | [5]; 500 ppm foliar spray | [1]; 200 ppm foliar spray | [1]; 500 ppm foliar spray | [2]; 200 ppm foliar spray | [2]; 500 ppm foliar spray | [4] | [6]; 50 ppm foliar spray | [7]; 50 ppm foliar spray

COc1cccc(-n2nnn(C)c2=O)c1COc1ccc(-c2nccc(C)n2)cc1C [Present Compound 90]
≤ 30%: [5]; 200 ppm foliar spray | [5]; 500 ppm foliar spray | [1]; 50 ppm foliar spray | [1]; 500 ppm foliar spray | [2]; 200 ppm foliar spray | [2]; 500 ppm foliar spray | [4] | [6]; 50 ppm foliar spray | [7]; 50 ppm foliar spray

Cn1nnn(-c2cccc(Cl)c2COc2cc(F)c(-c3ccccn3)cc2F)c1=O [Present Compound 208]
≤ 30%: [5]; 200 ppm foliar spray | [5]; 500 ppm foliar spray | [1]; 200 ppm foliar spray | [1]; 500 ppm foliar spray | [2]; 200 ppm foliar spray | [2]; 500 ppm foliar spray | [4] | [6]; 200 ppm foliar spray | [7]; 200 ppm foliar spray

COc1ccc(-c2ccc(OCc3c(C)cccc3-n3nnn(C)c3=O)c(C)c2)nn1 [Present Compound 102, 1-{3-methyl-2-[2-methyl-4-(6-methoxypyridazin-3-yl)-phenoxymethyl]-phenyl}-4-methyl-1,4-dihydrotetrazol-5-one]
≤ 30%: [5]; 200 ppm foliar spray | [5]; 500 ppm foliar spray | [1]; 200 ppm foliar spray | [1]; 500 ppm foliar spray | [2]; 200 ppm foliar spray | [2]; 500 ppm foliar spray | [4] | [6]; 200 ppm foliar spray | [7]; 50 ppm foliar spray

Cc1nccc(-c2ccc(OCc3c(Cl)cccc3-n3nnn(C)c3=O)c(C)c2)n1 [Present Compound 82]
≤ 30%: [5]; 200 ppm foliar spray | [5]; 500 ppm foliar spray | [1]; 200 ppm foliar spray | [1]; 500 ppm foliar spray | [2]; 200 ppm foliar spray | [2]; 500 ppm foliar spray | [4] | [6]; 200 ppm foliar spray | [7]; 200 ppm foliar spray

Cc1ccc(-c2cc(Cl)c(OCc3c(C)cccc3-n3nnn(C)c3=O)cc2C)nn1 [Present Compound 241]
≤ 30%: [5]; 200 ppm foliar spray | [3] | [4]

Cc1cc(OCc2c(C)cccc2-n2nnn(C)c2=O)c(Cl)cc1-c1cccc(Cl)n1 [Present Compound 191]
≤ 30%: [5]; 200 ppm foliar spray | [5]; 500 ppm foliar spray | [1]; 200 ppm foliar spray | [1]; 500 ppm foliar spray | [2]; 200 ppm foliar spray | [4] | [6]; 200 ppm foliar spray | [7]; 200 ppm foliar spray

Cc1nccc(-c2ccc(OCc3c(C)cccc3-n3nnn(C)c3=O)c(C)c2)n1 [Present Compound 77]
≤ 30%: [5]; 200 ppm foliar spray | [5]; 500 ppm foliar spray | [1]; 200 ppm foliar spray | [1]; 500 ppm foliar spray | [2]; 200 ppm foliar spray | [2]; 500 ppm foliar spray | [4] | [6]; 200 ppm foliar spray | [7]; 50 ppm foliar spray

Cn1nnn(-c2ccccc2COc2cc(Cl)c(-c3ccccn3)cc2Cl)c1=O [Present Compound 211]
≤ 30%: [5]; 200 ppm foliar spray | [5]; 500 ppm foliar spray | [2]; 200 ppm foliar spray | [3] | [4]

Cc1cc(-c2cc(Cl)ccn2)ccc1OCc1c(C)cccc1-n1nnn(C)c1=O [Present Compound 14]
≤ 30%: [5]; 200 ppm foliar spray | [5]; 500 ppm foliar spray | [1]; 200 ppm foliar spray | [1]; 500 ppm foliar spray | [2]; 200 ppm foliar spray | [2]; 500 ppm foliar spray | [4] | [6]; 200 ppm foliar spray | [7]; 50 ppm foliar spray

Cc1cc(-c2ccc(Cl)nc2)ccc1OCc1c(C)cccc1-n1nnn(C)c1=O [Present Compound 105, 1-{3-methyl-2-[2-methyl-4-(6-chloropyridin-3-yl)-phenoxymethyl]-phenyl}-4-methyl-1,4-dihydrotetrazol-5-one]
≤ 30%: [5]; 200 ppm foliar spray | [5]; 500 ppm foliar spray | [1]; 200 ppm foliar spray | [2]; 200 ppm foliar spray | [2]; 500 ppm foliar spray | [4] | [6]; 200 ppm foliar spray | [7]; 200 ppm foliar spray

Cc1ccnc(-c2ccc(OCc3c(Cl)cccc3-n3nnn(C)c3=O)c(C)c2)n1 [Present Compound 96]
≤ 30%: [5]; 200 ppm foliar spray | [5]; 500 ppm foliar spray | [1]; 200 ppm foliar spray | [1]; 500 ppm foliar spray | [2]; 200 ppm foliar spray | [2]; 500 ppm foliar spray | [4] | [6]; 200 ppm foliar spray | [7]; 50 ppm foliar spray

Cc1cc(-c2ccc(OCc3c(C)cccc3-n3nnn(C)c3=O)c(C)c2)ccn1 [Present Compound 113]
≤ 30%: [5]; 200 ppm foliar spray | [5]; 500 ppm foliar spray | [1]; 200 ppm foliar spray | [1]; 500 ppm foliar spray | [2]; 200 ppm foliar spray | [2]; 500 ppm foliar spray | [4] | [6]; 200 ppm foliar spray | [7]; 200 ppm foliar spray
